# Test results from the supplement of paper PMC7238544.
# Where a name gives a salt, the structure may show the parent alone. ± gives the standard deviation of the averaged measurements. Some of the results follow. The data scatter; read single values as rough.
# How the values were obtained:
# [1] = tested on: hAMSC donor 1; assay: Hoechst total cell count ratio vs vehicle control; higher = more cells (less toxicity)
# [2] = tested on: hAMSC donor 2; assay: as above
# [3] = tested on: hAMSC donor 1; assay: transgenic luciferase activity (RLU/mg protein) fold change vs vehicle control (ratio); higher = more transgene expression
# [4] = tested on: hAMSC donor 2; assay: as above
# [5] = tested on: hAMSC donor 1; assay: transfection efficiency (EGFP+ cells / Hoechst count) fold change vs vehicle control (ratio); hAMSC are human adipose-derived mesenchymal stem cells given an EGFP-luciferase plasmid by lipofection; higher = enhanced transfection
# [6] = tested on: hAMSC donor 2; assay: as above
# [7] = priming compound concentration 0.2 µM
# [8] = priming compound concentration 1.7 µM
# [9] = priming compound concentration 13 µM
SMILES,"Hoechst total cell count ratio [1, 7]","Hoechst total cell count ratio [1, 8]","Hoechst total cell count ratio [1, 9]","Hoechst total cell count ratio [2, 7]","Hoechst total cell count ratio [2, 8]","Hoechst total cell count ratio [2, 9]","transgenic luciferase activity [3, 7]","transgenic luciferase activity [3, 8]","transgenic luciferase activity [4, 7]","transgenic luciferase activity [4, 8]","transgenic luciferase activity [4, 9]","transfection efficiency [5, 7]","transfection efficiency [5, 8]","transfection efficiency [5, 9]","transfection efficiency [6, 7]","transfection efficiency [6, 8]","transfection efficiency [6, 9]","transgenic luciferase activity [3, 9]"
OC[C@H]1O[C@@H](n2cnc3c(N[C@H]4CCC[C@@H]4O)ncnc32)[C@H](O)[C@@H]1O,1.45 ± 0.15,1.31 ± 0.12,1.31 ± 0.27,1.14 ± 0.083,1.31 ± 0.059,1.16 ± 0.09,0.545 ± 0.054,2.06 ± 0.21,0.686 ± 0.041,0.965 ± 0.17,1.77 ± 0.34,1.01 ± 0.18,0.9 ± 0.15,1.05 ± 0.15,1.01 ± 0.086,0.902 ± 0.084,1.67 ± 0.29,
CCC(C)n1ncn(-c2ccc(N3CCN(c4ccc(OCC5COC(Cn6cncn6)(c6ccc(Cl)cc6Cl)O5)cc4)CC3)cc2)c1=O (configuration not stated) [Itraconazole],1.41 ± 0.22,1.18 ± 0.17,0.91 ± 0.037,1.02 ± 0.19,1.69 ± 0.066,0.81 ± 0.12,,0.594 ± 0.33,0.515 ± 0.033,0.614 ± 0.046,0.318 ± 0.14,0.946 ± 0.16,1.27 ± 0.11,2.3 ± 0.4,0.839 ± 0.13,0.708 ± 0.021,0.708 ± 0.2,0.183 ± 0.12
COC(=O)C1=C(C)NC(C)=C(C(=O)OCCN(C)Cc2ccccc2)C1c1cccc([N+](=O)[O-])c1 (configuration not stated) [Nicardipine hydrochloride],1.08 ± 0.15,0.934 ± 0.082,1.27 ± 0.32,1.05 ± 0.083,1.16 ± 0.042,1.02 ± 0.028,,1.34 ± 0.39,0.807 ± 0.076,0.484 ± 0.045,0.62 ± 0.084,1.01 ± 0.19,1.69 ± 0.69,0.96 ± 0.29,1.11 ± 0.1,1.02 ± 0.024,1.21 ± 0.15,0.391 ± 0.1
CCOC(=O)C1=C(COCCN)NC(C)=C(C(=O)OC)C1c1ccccc1Cl (configuration not stated) [Amlodipine],1.48 ± 0.14,1.39 ± 0.051,1.47 ± 0.15,0.974 ± 0.14,0.983 ± 0.051,1.54 ± 0.2,,0.633 ± 0.11,0.533 ± 0.085,0.723 ± 0.016,0.61 ± 0.11,0.931 ± 0.091,1.26 ± 0.29,0.773 ± 0.3,0.918 ± 0.056,1.17 ± 0.066,0.447 ± 0.076,0.221 ± 0.15
C[C@@H]1C[C@H]2[C@@H]3CCC4=CC(=O)C=C[C@]4(C)[C@@]3(F)[C@@H](O)C[C@]2(C)[C@@]1(O)C(=O)COP(=O)(O)O [Dexamethasone sodium phosphate],1.28 ± 0.12,1.29 ± 0.16,1.17 ± 0.14,1.31 ± 0.4,0.958 ± 0.031,1.07 ± 0.056,,1.31 ± 0.13,2.48 ± 0.89,4.0071 ± 0.0027,3.71 ± 0.47,1.01 ± 0.15,2.54 ± 0.63,2.56 ± 0.54,1.5 ± 0.31,2.21 ± 0.076,1.93 ± 0.22,11.1 ± 2.9
Nc1nc(=O)c2nc(CNc3ccc(C(=O)N[C@@H](CCC(=O)O)C(=O)O)cc3)cnc2[nH]1 [Folic acid],1.42 ± 0.023,1.1 ± 0.042,1.32 ± 0.12,1.13 ± 0.067,1.102 ± 0.0078,1.19 ± 0.26,,1.23 ± 0.23,1.21 ± 0.19,0.742 ± 0.056,0.845 ± 0.16,1.24 ± 0.51,1.01 ± 0.29,1.03 ± 0.28,0.912 ± 0.12,1.07 ± 0.2,1.26 ± 0.19,0.521 ± 0.16
CCC(=O)NS(=O)(=O)c1ccc(-c2c(-c3ccccc3)noc2C)cc1 [Parecoxib sodium],1.13 ± 0.19,1.23 ± 0.021,1.16 ± 0.068,1.17 ± 0.11,1.25 ± 0.042,1.22 ± 0.15,,1.02 ± 0.24,0.607 ± 0.04,0.673 ± 0.06,0.85 ± 0.19,1.06 ± 0.46,1.15 ± 0.31,1.11 ± 0.077,0.903 ± 0.08,0.998 ± 0.083,1.13 ± 0.18,1.13 ± 0.44
CCCNC(=O)NS(=O)(=O)c1ccc(Cl)cc1 [Chlorpropamide],1.12 ± 0.049,1.03 ± 0.18,1.32 ± 0.19,1.12 ± 0.061,1.26 ± 0.054,1.47 ± 0.22,0.645 ± 0.095,0.608 ± 0.46,0.929 ± 0.13,0.919 ± 0.025,0.478 ± 0.092,1.27 ± 0.35,2.04 ± 0.27,0.939 ± 0.35,1.21 ± 0.16,1.18 ± 0.085,0.91 ± 0.13,
O=C1CC2(CCCC2)CC(=O)N1CCNCC1COc2ccccc2O1 (configuration not stated),1.38 ± 0.061,1.26 ± 0.1,1.37 ± 0.098,1.02 ± 0.075,1.34 ± 0.05,0.967 ± 0.089,0.512 ± 0.18,1.83 ± 1.5,0.626 ± 0.046,0.753 ± 0.042,0.958 ± 0.07,0.92 ± 0.1,0.927 ± 0.13,1.13 ± 0.14,1.12 ± 0.29,0.789 ± 0.035,1.35 ± 0.19,
CC(=O)O[C@]1(C(C)=O)CC[C@H]2[C@@H]3C=C(C)C4=CC(=O)CC[C@]4(C)[C@H]3CC[C@@]21C [Megestrol acetate],1.45 ± 0.15,1.33 ± 0.061,1.43 ± 0.088,1.13 ± 0.17,1.31 ± 0.14,1.26 ± 0.26,,1.53 ± 0.16,0.474 ± 0.1,1.18 ± 0.18,1.4 ± 0.2,0.807 ± 0.28,1.74 ± 0.25,1.45 ± 0.44,0.8 ± 0.054,1.19 ± 0.098,1.29 ± 0.14,1.47 ± 0.67
CN(Cc1cnc2nc(N)nc(N)c2n1)c1ccc(C(=O)N[C@@H](CCC(=O)O)C(=O)O)cc1 [Methotrexate trihydrate],1.43 ± 0.088,1.22 ± 0.14,1.31 ± 0.23,0.969 ± 0.12,1.07 ± 0.15,1.01 ± 0.18,0.483 ± 0.12,2.24 ± 0.51,1.11 ± 0.51,0.774 ± 0.045,0.907 ± 0.35,0.804 ± 0.18,1.04 ± 0.37,1.18 ± 0.14,1.59 ± 0.47,1.1 ± 0.027,1.26 ± 0.033,
CN1[C@@H]2CC[C@H]1C[C@@H](OC(c1ccccc1)c1ccccc1)C2 [Benztropine mesylate],1.1 ± 0.038,1.16 ± 0.09,1.44 ± 0.058,0.908 ± 0.25,1.16 ± 0.13,1.57 ± 0.21,0.719 ± 0.14,1.16 ± 0.12,0.879 ± 0.061,0.979 ± 0.39,0.395 ± 0.048,1.16 ± 0.21,1.31 ± 0.55,0.899 ± 0.2,1.42 ± 0.31,1.35 ± 0.12,0.636 ± 0.098,
CN(C)[C@@H]1C(O)=C(C(N)=O)C(=O)[C@@]2(O)C(O)=C3C(=O)c4c(O)cccc4[C@@](C)(O)[C@H]3[C@H](O)[C@@H]12 [Oxytetracycline hydrochloride],1.04 ± 0.16,1.28 ± 0.12,1.42 ± 0.095,1.47 ± 0.1,0.996 ± 0.032,1.31 ± 0.18,,0.197 ± 0.11,1.1 ± 0.25,0.752 ± 0.09,0.562 ± 0.096,0.921 ± 0.29,1.48 ± 0.69,0.469 ± 0.051,0.768 ± 0.23,1.01 ± 0.24,0.637 ± 0.12,0.96 ± 0.56
O=C(O[C@H]1[C@H](Oc2ccccc2COC(=O)C2(O)C=CCCC2=O)O[C@H](CO)[C@@H](O)[C@@H]1O)c1ccccc1 (some centres not stated) [Tremulacin],1.51 ± 0.15,1.26 ± 0.16,1.17 ± 0.1,1.16 ± 0.17,1.23 ± 0.022,1.26 ± 0.12,,0.907 ± 0.3,0.506 ± 0.11,0.757 ± 0.036,0.896 ± 0.24,0.987 ± 0.32,1.22 ± 0.26,1.56 ± 0.087,0.835 ± 0.23,0.992 ± 0.073,0.909 ± 0.25,0.671 ± 0.11
CCOC(=O)CCC(=O)O[C@H]1[C@H](O[C@@H]2[C@@H](C)[C@H](O[C@H]3C[C@@](C)(OC)[C@@H](O)[C@H](C)O3)[C@@H](C)C(=O)O[C@H](CC)[C@@](C)(O)[C@H](O)[C@@H](C)C(=O)[C@H](C)C[C@@]2(C)O)O[C@H](C)C[C@@H]1N(C)C [Eryped],1.42 ± 0.092,1.102 ± 0.006,1.46 ± 0.19,1.15 ± 0.027,1.231 ± 0.0047,1.27 ± 0.25,,1.05 ± 0.3,0.91 ± 0.18,0.593 ± 0.049,0.538 ± 0.12,0.833 ± 0.14,1.26 ± 0.087,0.957 ± 0.18,0.881 ± 0.12,0.96 ± 0.2,0.735 ± 0.075,0.513 ± 0.16
CCCN[C@H]1CCc2nc(N)sc2C1 [Pramipexole],1.37 ± 0.2,1.24 ± 0.025,1.2 ± 0.091,1.1 ± 0.12,1.36 ± 0.086,1.38 ± 0.1,,0.845 ± 0.21,0.501 ± 0.21,0.966 ± 0.04,0.844 ± 0.077,1.29 ± 0.34,1.37 ± 0.1,1.44 ± 0.45,0.894 ± 0.058,0.789 ± 0.2,0.818 ± 0.15,0.555 ± 0.25
O=C1c2c(O)cc(O)cc2O[C@H](c2ccc(O)c(O)c2)[C@H]1O [Taxifolin-(+)],1.45 ± 0.22,1.26 ± 0.1,1.17 ± 0.25,1.07 ± 0.023,1.24 ± 0.11,0.805 ± 0.11,0.546 ± 0.21,1.66 ± 0.57,0.568 ± 0.16,0.637 ± 0.1,0.553 ± 0.25,0.929 ± 0.053,1.02 ± 0.056,1.15 ± 0.4,1.11 ± 0.091,0.959 ± 0.068,0.921 ± 0.11,
CC(=O)OCC(=O)[C@@]12OC(C)(C)O[C@@H]1C[C@H]1[C@@H]3C[C@H](F)C4=CC(=O)C=C[C@]4(C)[C@@]3(F)[C@@H](O)C[C@@]12C [Fluocinolone acetonide 21-acetate],1.05 ± 0.13,1.19 ± 0.06,1.16 ± 0.059,1.46 ± 0.31,0.934 ± 0.039,0.979 ± 0.16,,2.8 ± 0.15,5 ± 1.3,4.5 ± 0.41,3.25 ± 0.44,1.61 ± 0.35,3.31 ± 0.71,2.11 ± 0.42,1.04 ± 0.43,2.3 ± 0.51,1.88 ± 0.2,11.3 ± 0.46
CNCCCN1c2ccccc2CCc2ccccc21 [Desipramine hydrochloride],1.16 ± 0.13,1.25 ± 0.12,1.4 ± 0.12,1.21 ± 0.31,1.205 ± 0.008,1.59 ± 0.067,,0.196 ± 0.049,0.935 ± 0.27,0.989 ± 0.25,0.385 ± 0.13,1.48 ± 0.18,1.25 ± 0.5,0.404 ± 0.14,1.08 ± 0.15,1.02 ± 0.042,0.587 ± 0.14,0.794 ± 0.19
CC(COc1ccccc1)N(CCCl)Cc1ccccc1 (configuration not stated) [Phenoxybenzamine hydrochloride],1.68 ± 0.047,1.13 ± 0.049,1.67 ± 0.15,1.17 ± 0.027,1.16 ± 0.041,1.17 ± 0.24,,0.779 ± 0.095,0.849 ± 0.14,0.574 ± 0.044,0.615 ± 0.045,0.678 ± 0.11,1.18 ± 0.1,0.919 ± 0.1,0.836 ± 0.072,0.977 ± 0.31,1.11 ± 0.055,0.57 ± 0.33
OC[C@H]1O[C@@H](Oc2cc(O)cc(/C=C/c3ccc(O)cc3)c2)[C@H](O)[C@@H](O)[C@@H]1O [Piceid],1.49 ± 0.13,1.17 ± 0.03,1.3 ± 0.17,1.14 ± 0.034,1.43 ± 0.054,1.01 ± 0.14,0.369 ± 0.29,1.17 ± 0.8,0.675 ± 0.14,0.271 ± 0.12,1.12 ± 0.23,0.795 ± 0.14,0.821 ± 0.065,1.18 ± 0.23,0.856 ± 0.023,1.02 ± 0.23,1.37 ± 0.31,

# In another format: entries from further up
SMILES | Hoechst total cell count ratio [1, 7] | Hoechst total cell count ratio [1, 8] | Hoechst total cell count ratio [1, 9] | Hoechst total cell count ratio [2, 7] | Hoechst total cell count ratio [2, 8] | Hoechst total cell count ratio [2, 9] | transgenic luciferase activity [3, 7] | transgenic luciferase activity [3, 8] | transgenic luciferase activity [4, 7] | transgenic luciferase activity [4, 8] | transgenic luciferase activity [4, 9] | transfection efficiency [5, 7] | transfection efficiency [5, 8] | transfection efficiency [5, 9] | transfection efficiency [6, 7] | transfection efficiency [6, 8] | transfection efficiency [6, 9] | transgenic luciferase activity [3, 9]
OC[C@H]1O[C@@H](n2cnc3c(N[C@H]4CCC[C@@H]4O)ncnc32)[C@H](O)[C@@H]1O | 1.45 ± 0.15 | 1.31 ± 0.12 | 1.31 ± 0.27 | 1.14 ± 0.083 | 1.31 ± 0.059 | 1.16 ± 0.09 | 0.545 ± 0.054 | 2.06 ± 0.21 | 0.686 ± 0.041 | 0.965 ± 0.17 | 1.77 ± 0.34 | 1.01 ± 0.18 | 0.9 ± 0.15 | 1.05 ± 0.15 | 1.01 ± 0.086 | 0.902 ± 0.084 | 1.67 ± 0.29 | 
CCCNC(=O)NS(=O)(=O)c1ccc(Cl)cc1 [Chlorpropamide] | 1.12 ± 0.049 | 1.03 ± 0.18 | 1.32 ± 0.19 | 1.12 ± 0.061 | 1.26 ± 0.054 | 1.47 ± 0.22 | 0.645 ± 0.095 | 0.608 ± 0.46 | 0.929 ± 0.13 | 0.919 ± 0.025 | 0.478 ± 0.092 | 1.27 ± 0.35 | 2.04 ± 0.27 | 0.939 ± 0.35 | 1.21 ± 0.16 | 1.18 ± 0.085 | 0.91 ± 0.13 | 
